Assay results as given in publication doi:10.1101/2021.11.30.470617.
Where two headings read alike, the source gives them in different places. No constants are given. Whether binding was seen depends on the method and setting. Binding seen in cells or lysates may run through a third protein. Here binding means that the protein was enriched with, or labelled near, the bait; the list need not be complete. Blank lines part the entries; values can stand above or below the molecule they belong to.

Chains of the proteins cited; added tags and fusions are not shown. Residues count along the entry.
UniProt P78368: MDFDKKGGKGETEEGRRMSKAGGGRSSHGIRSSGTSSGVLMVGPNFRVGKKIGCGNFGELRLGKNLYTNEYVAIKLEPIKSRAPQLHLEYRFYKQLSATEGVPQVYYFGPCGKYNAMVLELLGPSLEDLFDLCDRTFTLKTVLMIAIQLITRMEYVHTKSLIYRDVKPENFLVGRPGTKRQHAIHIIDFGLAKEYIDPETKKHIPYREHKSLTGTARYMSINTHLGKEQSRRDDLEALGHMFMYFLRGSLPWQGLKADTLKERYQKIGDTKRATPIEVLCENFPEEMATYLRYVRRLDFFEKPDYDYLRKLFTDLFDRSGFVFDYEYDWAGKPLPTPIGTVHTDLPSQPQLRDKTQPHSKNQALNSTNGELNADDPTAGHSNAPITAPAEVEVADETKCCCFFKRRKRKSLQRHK
UniProt Q9HCP0: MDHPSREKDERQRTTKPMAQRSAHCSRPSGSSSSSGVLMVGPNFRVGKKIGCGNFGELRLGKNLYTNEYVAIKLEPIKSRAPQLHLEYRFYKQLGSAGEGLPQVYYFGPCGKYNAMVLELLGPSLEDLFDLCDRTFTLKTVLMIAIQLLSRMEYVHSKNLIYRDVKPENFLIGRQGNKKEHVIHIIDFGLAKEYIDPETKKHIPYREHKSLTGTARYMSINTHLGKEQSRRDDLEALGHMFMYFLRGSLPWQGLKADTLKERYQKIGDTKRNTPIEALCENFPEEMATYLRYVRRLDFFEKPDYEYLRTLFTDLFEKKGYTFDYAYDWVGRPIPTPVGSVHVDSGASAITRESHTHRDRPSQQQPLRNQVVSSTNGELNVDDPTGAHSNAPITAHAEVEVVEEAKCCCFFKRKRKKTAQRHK
UniProt Q9Y6M4: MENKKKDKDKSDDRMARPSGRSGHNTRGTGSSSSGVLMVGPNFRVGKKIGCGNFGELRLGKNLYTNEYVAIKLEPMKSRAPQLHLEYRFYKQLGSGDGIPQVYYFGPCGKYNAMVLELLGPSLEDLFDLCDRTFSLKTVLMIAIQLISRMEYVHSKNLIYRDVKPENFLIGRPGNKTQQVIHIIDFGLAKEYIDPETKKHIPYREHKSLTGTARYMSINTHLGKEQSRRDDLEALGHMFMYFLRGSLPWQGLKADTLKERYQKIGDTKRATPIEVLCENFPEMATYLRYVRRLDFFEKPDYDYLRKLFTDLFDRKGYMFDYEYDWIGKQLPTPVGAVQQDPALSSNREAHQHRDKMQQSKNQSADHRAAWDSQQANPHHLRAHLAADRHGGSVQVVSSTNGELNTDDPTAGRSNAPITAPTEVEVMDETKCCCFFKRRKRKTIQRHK
UniProt O15169: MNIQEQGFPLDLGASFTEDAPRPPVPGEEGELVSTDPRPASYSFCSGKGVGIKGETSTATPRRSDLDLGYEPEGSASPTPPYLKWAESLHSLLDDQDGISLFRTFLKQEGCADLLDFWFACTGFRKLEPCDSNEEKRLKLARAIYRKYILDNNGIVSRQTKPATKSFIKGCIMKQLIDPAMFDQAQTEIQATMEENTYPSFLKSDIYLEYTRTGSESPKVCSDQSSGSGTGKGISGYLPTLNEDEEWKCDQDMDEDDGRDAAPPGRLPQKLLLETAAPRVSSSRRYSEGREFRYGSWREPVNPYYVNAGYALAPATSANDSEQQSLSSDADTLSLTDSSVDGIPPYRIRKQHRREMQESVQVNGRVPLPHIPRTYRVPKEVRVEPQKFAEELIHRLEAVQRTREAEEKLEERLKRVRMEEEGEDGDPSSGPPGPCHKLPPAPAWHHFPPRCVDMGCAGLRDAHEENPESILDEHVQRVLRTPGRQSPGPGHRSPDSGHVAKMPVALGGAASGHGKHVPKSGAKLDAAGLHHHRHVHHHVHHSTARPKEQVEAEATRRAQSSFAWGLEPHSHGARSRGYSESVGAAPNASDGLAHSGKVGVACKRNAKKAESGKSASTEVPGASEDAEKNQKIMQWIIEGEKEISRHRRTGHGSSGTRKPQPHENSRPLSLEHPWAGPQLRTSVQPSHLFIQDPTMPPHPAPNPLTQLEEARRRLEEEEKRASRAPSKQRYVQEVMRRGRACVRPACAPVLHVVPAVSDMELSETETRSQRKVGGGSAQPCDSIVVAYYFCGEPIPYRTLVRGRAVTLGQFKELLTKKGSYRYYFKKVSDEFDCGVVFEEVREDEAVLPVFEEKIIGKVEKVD
UniProt Q9HCU4, residues 32-2923: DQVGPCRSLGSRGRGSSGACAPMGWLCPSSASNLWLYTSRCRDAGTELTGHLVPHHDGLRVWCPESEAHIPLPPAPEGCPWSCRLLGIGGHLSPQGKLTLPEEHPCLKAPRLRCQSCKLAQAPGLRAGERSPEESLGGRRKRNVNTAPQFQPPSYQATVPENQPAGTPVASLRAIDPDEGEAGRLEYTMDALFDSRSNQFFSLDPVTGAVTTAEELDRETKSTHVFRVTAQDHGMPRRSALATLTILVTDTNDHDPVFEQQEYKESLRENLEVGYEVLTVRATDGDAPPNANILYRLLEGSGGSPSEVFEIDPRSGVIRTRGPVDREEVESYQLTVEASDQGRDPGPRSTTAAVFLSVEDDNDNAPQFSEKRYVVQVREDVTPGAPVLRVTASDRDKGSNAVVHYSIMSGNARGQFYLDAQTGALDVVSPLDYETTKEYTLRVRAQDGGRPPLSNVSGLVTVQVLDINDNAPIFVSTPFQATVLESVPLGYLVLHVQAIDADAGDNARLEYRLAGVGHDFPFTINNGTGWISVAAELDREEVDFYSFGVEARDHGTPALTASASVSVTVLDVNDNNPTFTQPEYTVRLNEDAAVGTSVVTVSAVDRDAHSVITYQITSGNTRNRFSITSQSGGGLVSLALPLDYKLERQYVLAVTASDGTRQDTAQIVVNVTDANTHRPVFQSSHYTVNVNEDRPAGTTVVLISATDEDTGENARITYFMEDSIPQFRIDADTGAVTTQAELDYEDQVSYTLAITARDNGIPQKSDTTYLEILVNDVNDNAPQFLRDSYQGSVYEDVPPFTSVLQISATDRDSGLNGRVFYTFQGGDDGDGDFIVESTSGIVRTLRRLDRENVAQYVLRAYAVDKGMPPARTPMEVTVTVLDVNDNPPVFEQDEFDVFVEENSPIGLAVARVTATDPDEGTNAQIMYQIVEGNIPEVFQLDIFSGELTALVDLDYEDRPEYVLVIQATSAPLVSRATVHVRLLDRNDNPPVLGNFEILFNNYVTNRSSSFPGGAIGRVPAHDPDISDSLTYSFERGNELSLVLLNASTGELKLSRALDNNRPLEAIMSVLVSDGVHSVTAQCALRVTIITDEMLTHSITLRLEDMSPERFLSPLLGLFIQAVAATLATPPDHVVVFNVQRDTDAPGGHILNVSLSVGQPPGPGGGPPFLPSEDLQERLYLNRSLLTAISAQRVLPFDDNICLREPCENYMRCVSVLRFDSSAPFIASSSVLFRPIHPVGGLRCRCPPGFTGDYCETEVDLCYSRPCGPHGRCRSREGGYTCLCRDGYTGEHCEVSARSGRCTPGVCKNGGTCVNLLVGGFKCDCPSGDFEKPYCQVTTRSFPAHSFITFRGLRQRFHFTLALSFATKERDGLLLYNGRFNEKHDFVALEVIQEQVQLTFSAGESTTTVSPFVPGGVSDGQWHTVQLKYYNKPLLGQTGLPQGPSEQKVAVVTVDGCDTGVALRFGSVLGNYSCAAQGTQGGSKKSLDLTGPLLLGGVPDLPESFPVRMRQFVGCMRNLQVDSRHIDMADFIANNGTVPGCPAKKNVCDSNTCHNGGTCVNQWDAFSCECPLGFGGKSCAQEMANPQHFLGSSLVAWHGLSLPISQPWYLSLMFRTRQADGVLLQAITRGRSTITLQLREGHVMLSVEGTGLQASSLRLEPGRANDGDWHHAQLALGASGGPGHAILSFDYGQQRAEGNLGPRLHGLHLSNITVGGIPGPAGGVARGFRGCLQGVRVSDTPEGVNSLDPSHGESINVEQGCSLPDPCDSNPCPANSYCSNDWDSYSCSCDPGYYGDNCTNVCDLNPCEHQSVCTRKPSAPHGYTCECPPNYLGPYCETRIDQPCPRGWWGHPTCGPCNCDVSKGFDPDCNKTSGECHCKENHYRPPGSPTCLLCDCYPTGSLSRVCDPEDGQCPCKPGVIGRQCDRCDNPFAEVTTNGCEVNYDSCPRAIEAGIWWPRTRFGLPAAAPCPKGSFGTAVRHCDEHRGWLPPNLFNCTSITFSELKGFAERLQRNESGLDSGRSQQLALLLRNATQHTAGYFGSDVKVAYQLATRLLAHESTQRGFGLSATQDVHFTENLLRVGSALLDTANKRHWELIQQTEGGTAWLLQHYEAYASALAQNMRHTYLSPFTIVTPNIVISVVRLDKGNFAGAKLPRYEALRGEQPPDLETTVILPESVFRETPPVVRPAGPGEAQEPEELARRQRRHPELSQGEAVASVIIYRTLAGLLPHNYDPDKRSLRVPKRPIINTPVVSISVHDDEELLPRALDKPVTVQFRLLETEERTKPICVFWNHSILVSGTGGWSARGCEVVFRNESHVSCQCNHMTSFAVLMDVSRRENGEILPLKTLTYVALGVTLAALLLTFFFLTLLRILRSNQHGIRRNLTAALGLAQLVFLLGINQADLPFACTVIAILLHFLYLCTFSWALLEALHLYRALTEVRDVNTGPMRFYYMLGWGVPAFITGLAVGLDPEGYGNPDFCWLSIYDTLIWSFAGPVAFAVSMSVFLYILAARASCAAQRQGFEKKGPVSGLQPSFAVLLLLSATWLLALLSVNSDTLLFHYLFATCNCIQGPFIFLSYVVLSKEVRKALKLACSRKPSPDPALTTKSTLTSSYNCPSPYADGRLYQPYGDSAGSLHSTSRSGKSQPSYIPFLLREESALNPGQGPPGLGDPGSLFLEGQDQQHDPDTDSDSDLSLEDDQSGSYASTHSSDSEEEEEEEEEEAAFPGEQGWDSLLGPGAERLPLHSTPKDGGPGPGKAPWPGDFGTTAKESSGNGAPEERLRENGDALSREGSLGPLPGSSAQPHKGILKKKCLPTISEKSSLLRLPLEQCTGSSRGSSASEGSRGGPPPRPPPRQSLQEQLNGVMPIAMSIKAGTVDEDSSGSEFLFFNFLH
UniProt Q9ULC8: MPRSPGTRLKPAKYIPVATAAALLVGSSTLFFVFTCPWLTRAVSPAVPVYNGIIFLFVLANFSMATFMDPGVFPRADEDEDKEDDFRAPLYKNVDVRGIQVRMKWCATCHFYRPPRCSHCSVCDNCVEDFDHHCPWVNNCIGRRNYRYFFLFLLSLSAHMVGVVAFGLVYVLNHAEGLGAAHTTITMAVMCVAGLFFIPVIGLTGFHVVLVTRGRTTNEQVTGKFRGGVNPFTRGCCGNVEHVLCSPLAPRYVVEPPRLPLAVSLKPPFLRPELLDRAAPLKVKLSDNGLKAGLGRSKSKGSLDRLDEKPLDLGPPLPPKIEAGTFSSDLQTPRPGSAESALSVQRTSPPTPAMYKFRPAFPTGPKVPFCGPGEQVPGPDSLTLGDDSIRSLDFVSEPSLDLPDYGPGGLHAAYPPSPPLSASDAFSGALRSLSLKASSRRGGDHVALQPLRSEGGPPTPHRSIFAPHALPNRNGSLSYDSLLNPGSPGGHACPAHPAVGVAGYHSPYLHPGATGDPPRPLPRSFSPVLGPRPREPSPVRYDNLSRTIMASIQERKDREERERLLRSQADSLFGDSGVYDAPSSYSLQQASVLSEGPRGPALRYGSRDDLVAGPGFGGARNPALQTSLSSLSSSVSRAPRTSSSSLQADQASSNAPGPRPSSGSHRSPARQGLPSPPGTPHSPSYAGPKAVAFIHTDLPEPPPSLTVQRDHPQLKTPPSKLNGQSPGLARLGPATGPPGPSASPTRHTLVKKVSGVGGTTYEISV
UniProt P35222: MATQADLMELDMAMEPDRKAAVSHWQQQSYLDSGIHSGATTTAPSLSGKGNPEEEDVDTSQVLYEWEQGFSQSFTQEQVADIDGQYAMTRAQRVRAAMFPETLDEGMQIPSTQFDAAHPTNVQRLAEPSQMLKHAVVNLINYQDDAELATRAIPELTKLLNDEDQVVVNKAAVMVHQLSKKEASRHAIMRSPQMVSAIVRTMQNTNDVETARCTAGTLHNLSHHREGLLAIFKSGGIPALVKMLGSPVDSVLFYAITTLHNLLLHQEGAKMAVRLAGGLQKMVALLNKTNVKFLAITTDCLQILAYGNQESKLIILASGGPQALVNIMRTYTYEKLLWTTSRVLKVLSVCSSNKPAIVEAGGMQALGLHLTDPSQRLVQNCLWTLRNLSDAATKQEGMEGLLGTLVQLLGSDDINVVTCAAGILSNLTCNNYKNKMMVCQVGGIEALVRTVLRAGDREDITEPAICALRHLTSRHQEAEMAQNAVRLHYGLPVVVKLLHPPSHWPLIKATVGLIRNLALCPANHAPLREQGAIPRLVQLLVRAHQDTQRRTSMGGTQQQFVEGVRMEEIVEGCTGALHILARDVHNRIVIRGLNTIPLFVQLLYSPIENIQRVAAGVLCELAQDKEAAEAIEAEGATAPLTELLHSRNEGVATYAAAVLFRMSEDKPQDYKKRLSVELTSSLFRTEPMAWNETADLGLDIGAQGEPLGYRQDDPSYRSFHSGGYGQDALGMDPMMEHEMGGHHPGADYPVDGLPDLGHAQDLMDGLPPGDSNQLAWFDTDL

Columns and labels:
Experiment in all cases: proximity labelling
[1] = target: mT-V5-CK1γ2 (miniTurbo-V5 fusion of casein kinase 1 gamma 2) (human) (UniProt P78368)
[2] = target: mT-V5-CK1γ1 (miniTurbo-V5 fusion of casein kinase 1 gamma 1) (human) (UniProt Q9HCP0)
[3] = target: mT-V5-CK1γ3 (miniTurbo-V5 fusion of casein kinase 1 gamma 3) (human) (UniProt Q9Y6M4)
[4] = target: mT-V5-CK1γ2 (miniTurbo-V5 fusion of casein kinase 1 gamma 2) (human) (UniProt P78368); remark: listed apart in the source
[5] = target: mT-V5-CK1γ1 (miniTurbo-V5 fusion of casein kinase 1 gamma 1) (human) (UniProt Q9HCP0); remark: listed apart in the source
[6] = target: mT-V5-CK1γ3 (miniTurbo-V5 fusion of casein kinase 1 gamma 3) (human) (UniProt Q9Y6M4); remark: listed apart in the source

- binding [1]: binds
- binding [2]: binds
- binding [3]: binds
Molecule: AXIN1 (from UniProt O15169 1-862)

- binding [4]: binds
- binding [5]: binds
- binding [6]: binds
Molecule: CELSR2 (from UniProt Q9HCU4 32-2923) (receptor)

- binding [4]: binds
- binding [5]: binds
- binding [6]: binds
Molecule: DVL2 (from UniProt O14641 1-736)

- binding [4]: binds
- binding [5]: binds
- binding [6]: binds
Molecule: PIK3R3 (Phosphoinositide-3-Kinase Regulatory Subunit 3) (from UniProt Q92569 1-461)

- binding [4]: binds
- binding [5]: binds
- binding [6]: binds
Molecule: ZDHHC8 (Zinc Finger DHHC-Type Palmitoyltransferase 8) (from UniProt Q9ULC8 1-765) (enzyme)

- binding [4]: binds
- binding [5]: binds
- binding [6]: binds
- binding [1]: binds
- binding [2]: binds
- binding [3]: binds
Molecule: β-catenin (CTNNB1) (from UniProt P35222 1-781)

- binding [4]: binds
- binding [5]: binds
- binding [6]: binds
B1: PRICKLE1 (protein, UniProt Q96MT3 1-831)
chain: MPLEMEPKMSKLAFGCQRSSTSDDDSGCALEEYAWVPPGLRPEQIQLYFACLPEEKVPYVNSPGEKHRIKQLLYQLPPHDNEVRYCQSLSEEEKKELQVFSAQRKKEALGRGTIKLLSRAVMHAVCEQCGLKINGGEVAVFASRAGPGVCWHPSCFVCFTCNELLVDLIYFYQDGKIHCGRHHAELLKPRCSACDEIIFADECTEAEGRHWHMKHFCCLECETVLGGQRYIMKDGRPFCCGCFESLYAEYCETCGEHIGVDHAQMTYDGQHWHATEACFSCAQCKASLLGCPFLPKQGQIYCSKTCSLGEDVHASDSSDSAFQSARSRDSRRSVRMGKSSRSADQCRQSLLLSPALNYKFPGLSGNADDTLSRKLDDLSLSRQGTSFASEEFWKGRVEQETPEDPEEWADHEDYMTQLLLKFGDKSLFQPQPNEMDIRASEHWISDNMVKSKTELKQNNQSLASKKYQSDMYWAQSQDGLGDSAYGSHPGPASSRRLQELELDHGASGYNHDETQWYEDSLECLSDLKPEQSVRDSMDSLALSNITGASVDGENKPRPSLYSLQNFEEMETEDCEKMSNMGTLNSSMLHRSAESLKSLSSELCPEKILPEEKPVHLPVLRRSKSQSRPQQVKFSDDVIDNGNYDIEIRQPPMSERTRRRVYNFEERGSRSHHHRRRRSRKSRSDNALNLVTERKYSPKDRLRLYTPDNYEKFIQNKSAREIQAYIQNADLYGQYAHATSDYGLQNPGMNRFLGLYGEDDDSWCSSSSSSSDSEEEGYFLGQPIPQPRPQRFAYYTDDLSSPPSALPTPQFGQRTTKSKKKKGHKGKNCIIS
